Several values for one entry are separate records, joined by “and”; a condition that tells them apart may be missing. Equal entries are not always repeated. Entries after “also recorded” stand apart in the source; their conditions may differ. At least one compound was matched to its structure with a doubt left.
Columns and labels:
[1] = not given; remark: listed apart in the source
[2] = not given; remark: listed apart in the source

Compound: NCCCC[C@H](N)C(=O)O.O=C(O)c1cc(/N=N/c2ccc(S(=O)(=O)Nc3ccccn3)cc2)ccc1O [L-Lysine Salt, sulfasalazine L-lysine (1:1) salt]
- XRPD pattern after DVS analysis: unchanged
- hygroscopicity by DVS isotherm plot: moderately hygroscopic
- Salt disproportionation, XRPD [1]: New peak
- Hydration studies, XRPD [2]: Unchanged; also recorded: slight changes; also recorded: Small change
- Post-agitation pH [2]: 6.52 and 7.55 and 7.90
- Pre-agitation pH [2]: 6.53 and 6.77 and 8.28
